# Patent US9688613B2 (Jiva Pharma, Inc., priority 2015, dated 2017)
# System: GABA-A receptors
# Assay: Displacement of [3H] muscimol from GABA-A receptors
# Type: binding
# Method: Muscimol is the principal psychoactive constituent of Amanita muscaria and related species of mushroom.
# These tests were performed using the procedure described by Tomasz Plech et. al., Studies on anticonvulsant activity of 4-alkyl-1,2,4-triazole-3-thiones and their effect on GABAergic system; European J. of Medicinal Chem. 2014, 86, 690-699.
smiles,measurement,setting,value
"NCCCC(=O)O [GABA, γ-aminobutyric acid, reference compound]",% of [3H]-MUSCIMOL inhibition,LOG OF MOLAR CONC. −4,100%
same,% of [3H]-MUSCIMOL inhibition,LOG OF MOLAR CONC. −5,94%
